Experimental data: paper PMC5358333
No constants are given. Whether binding was seen depends on the method and setting. In cells and extracts the contact can be indirect. Some binding calls cover weakened binding; strength is not graded here.

The chains behind the UniProt entries cited, without tags or fusion partners.
UniProt P08670: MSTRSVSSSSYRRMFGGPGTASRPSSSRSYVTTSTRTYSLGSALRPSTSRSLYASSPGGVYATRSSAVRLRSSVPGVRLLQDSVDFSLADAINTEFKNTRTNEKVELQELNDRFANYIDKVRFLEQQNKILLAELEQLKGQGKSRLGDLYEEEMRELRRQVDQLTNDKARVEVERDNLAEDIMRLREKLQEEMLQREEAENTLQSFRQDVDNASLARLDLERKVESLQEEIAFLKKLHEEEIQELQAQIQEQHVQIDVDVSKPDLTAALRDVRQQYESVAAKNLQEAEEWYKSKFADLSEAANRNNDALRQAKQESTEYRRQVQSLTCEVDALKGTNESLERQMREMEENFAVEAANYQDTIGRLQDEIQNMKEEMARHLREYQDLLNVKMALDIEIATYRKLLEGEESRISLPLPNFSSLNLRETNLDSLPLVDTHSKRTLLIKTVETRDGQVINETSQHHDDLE

Molecular target: T1, GEF-H1 (also known as ARHGEF2) (human (endogenous in U2OS)) (UniProt Q92974)
T1 sequence: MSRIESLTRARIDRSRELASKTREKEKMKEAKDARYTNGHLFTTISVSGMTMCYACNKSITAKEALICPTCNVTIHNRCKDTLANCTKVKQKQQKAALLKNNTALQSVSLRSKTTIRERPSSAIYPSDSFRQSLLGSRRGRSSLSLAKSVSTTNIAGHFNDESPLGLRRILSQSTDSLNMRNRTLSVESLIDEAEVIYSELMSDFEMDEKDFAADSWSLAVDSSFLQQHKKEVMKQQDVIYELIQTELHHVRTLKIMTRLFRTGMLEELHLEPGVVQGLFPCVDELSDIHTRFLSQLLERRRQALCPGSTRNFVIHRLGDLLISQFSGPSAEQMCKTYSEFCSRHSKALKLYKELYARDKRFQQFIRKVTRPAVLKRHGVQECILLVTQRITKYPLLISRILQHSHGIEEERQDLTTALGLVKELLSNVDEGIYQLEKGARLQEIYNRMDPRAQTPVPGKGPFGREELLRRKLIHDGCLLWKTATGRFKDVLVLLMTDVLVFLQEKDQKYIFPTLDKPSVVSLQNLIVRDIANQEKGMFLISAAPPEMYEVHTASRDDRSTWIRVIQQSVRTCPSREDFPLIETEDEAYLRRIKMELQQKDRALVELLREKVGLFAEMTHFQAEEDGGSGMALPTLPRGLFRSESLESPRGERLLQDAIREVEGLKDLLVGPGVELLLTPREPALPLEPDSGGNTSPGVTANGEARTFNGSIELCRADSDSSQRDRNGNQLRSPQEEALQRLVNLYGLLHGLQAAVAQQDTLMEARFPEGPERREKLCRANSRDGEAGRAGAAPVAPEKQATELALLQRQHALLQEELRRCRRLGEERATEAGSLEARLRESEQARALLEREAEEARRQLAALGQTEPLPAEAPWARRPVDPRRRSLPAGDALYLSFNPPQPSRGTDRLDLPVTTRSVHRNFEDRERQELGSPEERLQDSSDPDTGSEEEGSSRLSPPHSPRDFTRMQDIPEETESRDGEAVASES
Assay: co-IP; U2OS whole-cell extract in NP-40 lysis buffer (50 mM Tris-HCl pH 7.4, 50 mM NaCl, 0.1% Triton X-100, 1% NP-40); anti-GEF-H1 antibody on Dynabeads, overnight at 4°C; blot with anti-vimentin antibody; IgG as negative control

vimentin (from UniProt P08670 1-466) was tested, and the binding was “binds”.
